Test results taken from publication PMC10061979.
Results are given in words; binding and its absence hold for the method and conditions named. Binding seen in cells or lysates may run through a third protein. A yes stands for co-enrichment or nearness to the bait. Other partners may have been found. For some of these results: Tags and fused reporters may be left off the sequences shown.

Chains of the proteins cited; added tags and fusions are not shown.
UniProt Q9WU34: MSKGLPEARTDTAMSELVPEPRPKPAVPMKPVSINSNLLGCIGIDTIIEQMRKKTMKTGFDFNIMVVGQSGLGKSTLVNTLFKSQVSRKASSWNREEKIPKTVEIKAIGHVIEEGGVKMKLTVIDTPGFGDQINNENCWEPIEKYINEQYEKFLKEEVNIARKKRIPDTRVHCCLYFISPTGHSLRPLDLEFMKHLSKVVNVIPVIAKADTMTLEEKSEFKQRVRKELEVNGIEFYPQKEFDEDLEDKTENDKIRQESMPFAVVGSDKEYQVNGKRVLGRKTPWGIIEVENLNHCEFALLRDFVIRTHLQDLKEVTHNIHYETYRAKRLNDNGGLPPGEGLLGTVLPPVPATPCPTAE
UniProt Q9UH03: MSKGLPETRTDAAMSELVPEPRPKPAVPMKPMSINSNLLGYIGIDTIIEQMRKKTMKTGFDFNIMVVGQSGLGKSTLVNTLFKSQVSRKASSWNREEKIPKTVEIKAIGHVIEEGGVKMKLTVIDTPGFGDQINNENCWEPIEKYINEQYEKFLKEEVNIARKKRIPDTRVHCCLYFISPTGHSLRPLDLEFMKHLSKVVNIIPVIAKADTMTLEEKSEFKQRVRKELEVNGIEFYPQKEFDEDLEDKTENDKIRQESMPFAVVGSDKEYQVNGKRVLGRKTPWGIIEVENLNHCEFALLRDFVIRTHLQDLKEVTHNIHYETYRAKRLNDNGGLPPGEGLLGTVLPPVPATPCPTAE

What follows are binders tested against septin-3 (rat cerebellum) (rat (endogenous in rat cerebellum)) (UniProt Q9WU34) (assay: affinity purification with mass spectrometry; rat cerebellum lysate (Tris-HCl pH 7.4, 150 mmol/L NaCl, 0.5% deoxycholate, 1% Triton X-100) incubated overnight at 4 °C with anti-septin-3-positive patient sera, captured on Protein G Dynabeads; SDS-PAGE, bands identified by mass spectrometry).

binding | Binder
binds | septin-11 (rat cerebellum) (protein, UniProt B3GNI6 1-431) MAVAVGRPSNEELRNLSLSGHVGFDSLPDQLVNKSTSQGFCFNILCVGETGIGKSTLMDTLFNTKFESDPATHNEPGVRLKARSYELQESNVRLKLTIVDTVGFGDQINKDDSYKPIVEYIDAQFEAYLQEELKIKRSLFNYHDTRIHACLYFIAPTGHSLKSLDLVTMKKLDSKVNIIPIIAKADTIAKNELHKFKSKIMSELVSNGVQIYQFPTDEETVAEINATMSVHLPFAVVGSTEEVKIGNKMAKARQYPWGVVQVENENHCDFVKLREMLIRVNMEDLREQTHTRHYELYRRCKLEEMGFKDTDPDSKPFSLQETYEAKRNEFLGELQKKEEEMRQMFVMRVKEKEAELKEAEKELHEKFDLLKRTHQEEKKKVEDKKKELEEEVSNFQKKKAAAQLLQSQAQQSGAQQTKKDKDKKNPWLCTE
binds | septin-5 (rat cerebellum) (protein, UniProt Q9JJM9 1-369) MSTGLRYKSKLATPEDKQDIDKQYVGFATLPNQVHRKSVKKGFDFTLMVAGESGLGKSTLVHSLFLTDLYKDRKLLSAEERINQTVEILKHTVDIEEKGVKLKLTIVDTPGFGDAVNNFECWKPITDYVDQQFEQYFRDESGLNRKNIQDNRVHCCLYFISPFGHGLRPVDVGFMKALHEKVNIVPLIAKADCLVPSEIRKLKDRIREEIDKFGIHVYQFPECDSDEDEDFKQQDRELKESAPFAVIGSNTVVEAKGQRVRGRLYPWGIVEVENQAHCDFVKLRNMLIRTHMHDLKDVTCDVHYENYRAHCIQQMTSKLTQDSRMESPIPILPLPTPDSETEKLIRMKDEELRRMQEMLQKMKQRMQDQ
binds | septin-7 (rat cerebellum) (protein, UniProt Q9WVC0 1-436) MSVSARSAAAEERSVNCSTMAQPKNLEGYVGFANLPNQVYRKSVKRGFEFTLMVVGESGLGKSTLINSLFLTDLYSPEYPGPSHRIKKTVQVEQSKVLIKEGGVQLLLTIVDTPGFGDAVDNSNCWQPVIDYIDSKFEDYLNAESRVNRRQMPDNRVQCCLYFIAPSGHGLKPLDIEFMKRLHEKVNIIPLIAKADTLTPEECQQFKKQIMKEIQGHKIKIYEFPETDDEEENKLVKKIKDRLPLAVVGSNTIIEVNGKRVRGRQYPWGVAEVENGEHCDFTILRNMLIRTHMQDLKDVTNNVHYENYRSRKLAAVTYNGVDNNKNKGQLTKSPLAQMEEERREHVAKMKKMEMEMEQVFEMKVKEKVQKLKDSEAELQRRHEQMKKNLEAQHKELEEKRRQFEEEKANWEAQQRILEQQNSSRTLEKNKKKGKIF

What follows are binders tested against septin-3-His (human) (UniProt Q9UH03) (assay: affinity purification with mass spectrometry; septin-3-His co-expressed with non-tagged septin-5, -6, -7 and -11 in HEK293 cells; septin-3-His enriched by immobilized metal ion affinity chromatography combined with anion exchange chromatography; fraction analysed by ESI-TOF mass spectrometry and SDS-PAGE).

binding | Binder
binds | non-tagged septin-5 (protein, UniProt Q99719 1-369) MSTGLRYKSKLATPEDKQDIDKQYVGFATLPNQVHRKSVKKGFDFTLMVAGESGLGKSTLVHSLFLTDLYKDRKLLSAEERISQTVEILKHTVDIEEKGVKLKLTIVDTPGFGDAVNNTECWKPITDYVDQQFEQYFRDESGLNRKNIQDNRVHCCLYFISPFGHGLRPVDVGFMKALHEKVNIVPLIAKADCLVPSEIRKLKERIREEIDKFGIHVYQFPECDSDEDEDFKQQDRELKESAPFAVIGSNTVVEAKGQRVRGRLYPWGIVEVENQAHCDFVKLRNMLIRTHMHDLKDVTCDVHYENYRAHCIQQMTSKLTQDSRMESPIPILPLPTPDAETEKLIRMKDEELRRMQEMLQRMKQQMQDQ
binds | non-tagged septin-6 (protein, UniProt Q14141 1-434) MAATDIARQVGEGCRTVPLAGHVGFDSLPDQLVNKSVSQGFCFNILCVGETGLGKSTLMDTLFNTKFEGEPATHTQPGVQLQSNTYDLQESNVRLKLTIVSTVGFGDQINKEDSYKPIVEFIDAQFEAYLQEELKIRRVLHTYHDSRIHVCLYFIAPTGHSLKSLDLVTMKKLDSKVNIIPIIAKADAISKSELTKFKIKITSELVSNGVQIYQFPTDDESVAEINGTMNAHLPFAVIGSTEELKIGNKMMRARQYPWGTVQVENEAHCDFVKLREMLIRVNMEDLREQTHTRHYELYRRCKLEEMGFKDTDPDSKPFSLQETYEAKRNEFLGELQKKEEEMRQMFVQRVKEKEAELKEAEKELHEKFDRLKKLHQDEKKKLEDKKKSLDDEVNAFKQRKTAAELLQSQGSQAGGSQTLKRDKEKKNNPWLCTE
binds | non-tagged septin-7 (protein, UniProt Q16181 1-437) MSVSARSAAAEERSVNSSTMVAQQKNLEGYVGFANLPNQVYRKSVKRGFEFTLMVVGESGLGKSTLINSLFLTDLYSPEYPGPSHRIKKTVQVEQSKVLIKEGGVQLLLTIVDTPGFGDAVDNSNCWQPVIDYIDSKFEDYLNAESRVNRRQMPDNRVQCCLYFIAPSGHGLKPLDIEFMKRLHEKVNIIPLIAKADTLTPEECQQFKKQIMKEIQEHKIKIYEFPETDDEEENKLVKKIKDRLPLAVVGSNTIIEVNGKRVRGRQYPWGVAEVENGEHCDFTILRNMLIRTHMQDLKDVTNNVHYENYRSRKLAAVTYNGVDNNKNKGQLTKSPLAQMEEERREHVAKMKKMEMEMEQVFEMKVKEKVQKLKDSEAELQRRHEQMKKNLEAQHKELEEKRRQFEDEKANWEAQQRILEQQNSSRTLEKNKKKGKIF
binds | non-tagged septin-11 (protein, UniProt Q9NVA2 1-429) MAVAVGRPSNEELRNLSLSGHVGFDSLPDQLVNKSTSQGFCFNILCVGETGIGKSTLMDTLFNTKFESDPATHNEPGVRLKARSYELQESNVRLKLTIVDTVGFGDQINKDDSYKPIVEYIDAQFEAYLQEELKIKRSLFNYHDTRIHACLYFIAPTGHSLKSLDLVTMKKLDSKVNIIPIIAKADTIAKNELHKFKSKIMSELVSNGVQIYQFPTDEETVAEINATMSVHLPFAVVGSTEEVKIGNKMAKARQYPWGVVQVENENHCDFVKLREMLIRVNMEDLREQTHTRHYELYRRCKLEEMGFKDTDPDSKPFSLQETYEAKRNEFLGELQKKEEEMRQMFVMRVKEKEAELKEAEKELHEKFDLLKRTHQEEKKKVEDKKKELEEEVNNFQKKKAAAQLLQSQAQQSGAQQTKKDKDKKNASFT
